Experimental findings from the supplement of paper PMC6411743 are described below.

By UniProt entry, the sequences of proteins in these tests, tags left out. Where a name states a change or a piece, a line headed by the entry shows the natural chain unless it says otherwise.
UniProt Q12968: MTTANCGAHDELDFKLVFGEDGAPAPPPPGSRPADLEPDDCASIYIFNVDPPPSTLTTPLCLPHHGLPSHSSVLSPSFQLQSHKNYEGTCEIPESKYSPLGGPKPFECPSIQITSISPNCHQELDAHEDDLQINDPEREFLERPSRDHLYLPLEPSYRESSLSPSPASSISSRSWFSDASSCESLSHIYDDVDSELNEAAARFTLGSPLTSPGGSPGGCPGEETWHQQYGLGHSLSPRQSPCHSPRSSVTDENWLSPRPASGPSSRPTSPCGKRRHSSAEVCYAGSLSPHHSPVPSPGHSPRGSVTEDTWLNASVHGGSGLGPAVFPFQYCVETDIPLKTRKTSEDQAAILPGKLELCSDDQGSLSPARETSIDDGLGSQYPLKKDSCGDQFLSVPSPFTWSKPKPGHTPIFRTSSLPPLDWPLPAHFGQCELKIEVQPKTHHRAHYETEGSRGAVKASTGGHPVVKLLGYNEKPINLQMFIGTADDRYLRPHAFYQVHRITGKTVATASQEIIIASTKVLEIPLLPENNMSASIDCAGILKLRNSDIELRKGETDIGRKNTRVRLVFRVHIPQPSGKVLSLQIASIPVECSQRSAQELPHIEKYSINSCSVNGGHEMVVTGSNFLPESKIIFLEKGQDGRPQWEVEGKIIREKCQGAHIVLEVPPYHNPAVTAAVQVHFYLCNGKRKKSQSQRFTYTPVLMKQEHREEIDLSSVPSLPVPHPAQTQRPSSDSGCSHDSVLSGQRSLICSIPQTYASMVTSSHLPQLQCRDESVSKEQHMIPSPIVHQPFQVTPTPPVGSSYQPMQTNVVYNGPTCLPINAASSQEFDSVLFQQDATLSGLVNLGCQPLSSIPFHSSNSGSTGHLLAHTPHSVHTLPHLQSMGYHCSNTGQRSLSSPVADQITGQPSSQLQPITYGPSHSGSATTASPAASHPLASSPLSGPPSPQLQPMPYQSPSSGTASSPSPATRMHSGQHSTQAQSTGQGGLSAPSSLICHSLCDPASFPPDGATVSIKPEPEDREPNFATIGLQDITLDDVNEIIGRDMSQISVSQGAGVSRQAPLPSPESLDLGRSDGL
UniProt P07992: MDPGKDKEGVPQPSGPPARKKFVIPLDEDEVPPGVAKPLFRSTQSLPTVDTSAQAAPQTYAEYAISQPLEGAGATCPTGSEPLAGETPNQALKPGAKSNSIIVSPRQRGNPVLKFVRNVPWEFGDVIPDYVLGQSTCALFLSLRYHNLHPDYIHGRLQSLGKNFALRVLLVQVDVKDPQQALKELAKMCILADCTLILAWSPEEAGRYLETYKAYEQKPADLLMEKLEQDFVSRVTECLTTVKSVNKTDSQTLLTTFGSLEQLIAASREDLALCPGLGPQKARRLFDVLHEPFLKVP
UniProt Q8WWM7: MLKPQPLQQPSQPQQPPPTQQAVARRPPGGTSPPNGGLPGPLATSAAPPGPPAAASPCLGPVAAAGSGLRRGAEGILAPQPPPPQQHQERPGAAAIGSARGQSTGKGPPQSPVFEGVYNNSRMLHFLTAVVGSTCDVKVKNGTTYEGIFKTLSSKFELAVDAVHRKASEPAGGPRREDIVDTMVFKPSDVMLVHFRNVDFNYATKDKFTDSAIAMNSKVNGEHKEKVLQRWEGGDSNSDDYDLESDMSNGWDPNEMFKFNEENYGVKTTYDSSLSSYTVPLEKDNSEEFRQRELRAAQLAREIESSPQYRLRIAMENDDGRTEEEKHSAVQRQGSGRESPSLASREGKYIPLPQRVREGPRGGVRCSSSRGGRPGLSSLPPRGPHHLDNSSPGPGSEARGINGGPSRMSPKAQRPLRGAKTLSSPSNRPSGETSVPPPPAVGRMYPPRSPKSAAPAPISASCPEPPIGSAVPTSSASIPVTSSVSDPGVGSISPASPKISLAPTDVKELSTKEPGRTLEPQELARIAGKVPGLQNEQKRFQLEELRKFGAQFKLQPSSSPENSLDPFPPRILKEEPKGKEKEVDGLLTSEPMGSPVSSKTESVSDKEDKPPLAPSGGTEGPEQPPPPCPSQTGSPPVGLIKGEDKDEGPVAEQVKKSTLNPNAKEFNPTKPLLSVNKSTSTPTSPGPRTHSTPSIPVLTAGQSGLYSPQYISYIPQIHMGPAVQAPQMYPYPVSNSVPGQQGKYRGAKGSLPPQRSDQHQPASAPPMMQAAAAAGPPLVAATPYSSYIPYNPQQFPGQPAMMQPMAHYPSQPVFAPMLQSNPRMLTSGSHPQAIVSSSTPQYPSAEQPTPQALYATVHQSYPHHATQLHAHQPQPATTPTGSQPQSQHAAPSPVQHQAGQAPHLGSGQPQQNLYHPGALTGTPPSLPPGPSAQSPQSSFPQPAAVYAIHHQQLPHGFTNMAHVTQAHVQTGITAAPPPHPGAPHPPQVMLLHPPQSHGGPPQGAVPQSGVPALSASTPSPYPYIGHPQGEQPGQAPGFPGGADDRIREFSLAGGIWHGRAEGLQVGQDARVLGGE
UniProt P30260, whole entry: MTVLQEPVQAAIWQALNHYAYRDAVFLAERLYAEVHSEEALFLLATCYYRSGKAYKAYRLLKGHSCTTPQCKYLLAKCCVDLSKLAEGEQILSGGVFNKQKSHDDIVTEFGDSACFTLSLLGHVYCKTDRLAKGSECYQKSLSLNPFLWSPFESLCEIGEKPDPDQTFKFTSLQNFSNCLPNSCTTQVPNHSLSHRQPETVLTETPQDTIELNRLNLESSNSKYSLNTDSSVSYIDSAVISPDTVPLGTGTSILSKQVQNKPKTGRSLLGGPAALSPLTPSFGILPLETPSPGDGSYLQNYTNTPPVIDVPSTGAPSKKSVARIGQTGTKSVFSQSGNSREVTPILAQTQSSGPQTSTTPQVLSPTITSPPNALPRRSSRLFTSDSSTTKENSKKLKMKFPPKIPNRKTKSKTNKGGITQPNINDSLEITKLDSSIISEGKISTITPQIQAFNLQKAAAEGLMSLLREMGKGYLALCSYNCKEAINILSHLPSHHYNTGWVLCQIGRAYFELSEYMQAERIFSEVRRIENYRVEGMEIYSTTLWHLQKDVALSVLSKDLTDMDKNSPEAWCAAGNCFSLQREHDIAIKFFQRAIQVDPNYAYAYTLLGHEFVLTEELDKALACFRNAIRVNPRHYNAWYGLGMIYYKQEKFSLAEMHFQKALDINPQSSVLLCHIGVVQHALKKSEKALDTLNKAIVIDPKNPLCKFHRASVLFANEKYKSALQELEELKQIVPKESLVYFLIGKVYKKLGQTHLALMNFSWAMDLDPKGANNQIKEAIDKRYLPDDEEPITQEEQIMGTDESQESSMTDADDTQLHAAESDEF
UniProt Q9BSJ5: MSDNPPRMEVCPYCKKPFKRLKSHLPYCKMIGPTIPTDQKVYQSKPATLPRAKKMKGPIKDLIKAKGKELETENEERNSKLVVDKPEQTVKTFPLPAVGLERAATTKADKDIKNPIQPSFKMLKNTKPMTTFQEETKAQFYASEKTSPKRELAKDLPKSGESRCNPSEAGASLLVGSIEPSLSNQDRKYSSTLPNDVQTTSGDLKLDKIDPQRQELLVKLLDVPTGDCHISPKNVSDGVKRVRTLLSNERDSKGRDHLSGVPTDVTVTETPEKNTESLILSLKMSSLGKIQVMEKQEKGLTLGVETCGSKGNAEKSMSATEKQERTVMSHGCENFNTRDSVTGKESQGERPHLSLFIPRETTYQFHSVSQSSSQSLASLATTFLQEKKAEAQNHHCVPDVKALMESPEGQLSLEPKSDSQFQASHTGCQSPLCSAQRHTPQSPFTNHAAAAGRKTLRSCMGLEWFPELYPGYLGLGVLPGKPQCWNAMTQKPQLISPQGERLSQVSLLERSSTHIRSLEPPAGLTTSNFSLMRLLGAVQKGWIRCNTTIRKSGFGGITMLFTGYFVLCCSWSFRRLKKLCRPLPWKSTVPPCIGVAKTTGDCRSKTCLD
UniProt Q13686: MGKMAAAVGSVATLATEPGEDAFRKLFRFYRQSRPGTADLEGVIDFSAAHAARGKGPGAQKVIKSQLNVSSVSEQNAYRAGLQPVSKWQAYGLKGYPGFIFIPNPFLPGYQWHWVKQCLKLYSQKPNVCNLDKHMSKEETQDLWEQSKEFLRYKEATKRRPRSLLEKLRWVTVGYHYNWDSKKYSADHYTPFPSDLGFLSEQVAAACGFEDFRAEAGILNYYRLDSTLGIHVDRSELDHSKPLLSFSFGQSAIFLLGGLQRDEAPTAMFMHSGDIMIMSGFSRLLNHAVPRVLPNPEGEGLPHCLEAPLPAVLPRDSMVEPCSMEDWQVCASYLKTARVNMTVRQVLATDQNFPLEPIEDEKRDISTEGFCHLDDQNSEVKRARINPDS
UniProt Q9BXC9: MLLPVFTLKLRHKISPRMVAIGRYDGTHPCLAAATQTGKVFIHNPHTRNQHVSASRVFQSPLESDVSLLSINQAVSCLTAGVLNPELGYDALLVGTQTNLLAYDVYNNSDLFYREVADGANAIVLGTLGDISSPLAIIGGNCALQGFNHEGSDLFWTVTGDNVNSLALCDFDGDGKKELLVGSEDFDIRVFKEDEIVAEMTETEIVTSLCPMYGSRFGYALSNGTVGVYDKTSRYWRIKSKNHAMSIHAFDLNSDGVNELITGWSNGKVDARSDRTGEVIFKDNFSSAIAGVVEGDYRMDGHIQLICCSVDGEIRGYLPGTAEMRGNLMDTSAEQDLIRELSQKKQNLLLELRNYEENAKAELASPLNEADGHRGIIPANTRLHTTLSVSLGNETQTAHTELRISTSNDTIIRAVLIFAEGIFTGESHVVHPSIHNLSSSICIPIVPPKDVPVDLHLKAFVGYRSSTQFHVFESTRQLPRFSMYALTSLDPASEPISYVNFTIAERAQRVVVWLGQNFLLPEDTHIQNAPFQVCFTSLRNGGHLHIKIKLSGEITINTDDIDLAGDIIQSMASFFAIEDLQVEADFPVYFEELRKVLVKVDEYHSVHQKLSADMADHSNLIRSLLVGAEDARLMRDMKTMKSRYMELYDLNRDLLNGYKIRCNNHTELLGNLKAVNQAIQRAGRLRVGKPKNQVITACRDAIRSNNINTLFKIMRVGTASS
UniProt Q92841: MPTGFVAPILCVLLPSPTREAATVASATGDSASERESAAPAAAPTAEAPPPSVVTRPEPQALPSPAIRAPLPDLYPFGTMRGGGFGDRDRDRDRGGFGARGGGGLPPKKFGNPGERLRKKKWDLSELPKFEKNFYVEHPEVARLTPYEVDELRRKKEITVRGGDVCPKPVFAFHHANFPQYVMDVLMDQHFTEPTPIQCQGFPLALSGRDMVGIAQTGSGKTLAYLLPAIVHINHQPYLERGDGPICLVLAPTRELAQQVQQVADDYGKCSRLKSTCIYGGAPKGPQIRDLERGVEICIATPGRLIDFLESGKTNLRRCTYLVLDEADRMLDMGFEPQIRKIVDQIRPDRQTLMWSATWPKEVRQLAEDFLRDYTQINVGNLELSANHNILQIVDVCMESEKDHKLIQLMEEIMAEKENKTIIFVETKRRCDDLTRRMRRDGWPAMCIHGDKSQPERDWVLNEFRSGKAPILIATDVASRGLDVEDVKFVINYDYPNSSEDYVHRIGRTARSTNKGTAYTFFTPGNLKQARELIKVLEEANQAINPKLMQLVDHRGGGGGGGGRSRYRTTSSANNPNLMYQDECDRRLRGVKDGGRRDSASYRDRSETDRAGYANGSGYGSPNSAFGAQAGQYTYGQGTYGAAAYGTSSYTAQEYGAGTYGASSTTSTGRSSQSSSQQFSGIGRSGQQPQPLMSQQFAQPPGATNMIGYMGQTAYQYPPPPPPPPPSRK
UniProt L0R6Q1: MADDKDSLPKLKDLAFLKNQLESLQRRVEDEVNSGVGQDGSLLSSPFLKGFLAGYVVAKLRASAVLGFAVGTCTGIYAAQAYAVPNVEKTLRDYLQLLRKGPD
UniProt O14641: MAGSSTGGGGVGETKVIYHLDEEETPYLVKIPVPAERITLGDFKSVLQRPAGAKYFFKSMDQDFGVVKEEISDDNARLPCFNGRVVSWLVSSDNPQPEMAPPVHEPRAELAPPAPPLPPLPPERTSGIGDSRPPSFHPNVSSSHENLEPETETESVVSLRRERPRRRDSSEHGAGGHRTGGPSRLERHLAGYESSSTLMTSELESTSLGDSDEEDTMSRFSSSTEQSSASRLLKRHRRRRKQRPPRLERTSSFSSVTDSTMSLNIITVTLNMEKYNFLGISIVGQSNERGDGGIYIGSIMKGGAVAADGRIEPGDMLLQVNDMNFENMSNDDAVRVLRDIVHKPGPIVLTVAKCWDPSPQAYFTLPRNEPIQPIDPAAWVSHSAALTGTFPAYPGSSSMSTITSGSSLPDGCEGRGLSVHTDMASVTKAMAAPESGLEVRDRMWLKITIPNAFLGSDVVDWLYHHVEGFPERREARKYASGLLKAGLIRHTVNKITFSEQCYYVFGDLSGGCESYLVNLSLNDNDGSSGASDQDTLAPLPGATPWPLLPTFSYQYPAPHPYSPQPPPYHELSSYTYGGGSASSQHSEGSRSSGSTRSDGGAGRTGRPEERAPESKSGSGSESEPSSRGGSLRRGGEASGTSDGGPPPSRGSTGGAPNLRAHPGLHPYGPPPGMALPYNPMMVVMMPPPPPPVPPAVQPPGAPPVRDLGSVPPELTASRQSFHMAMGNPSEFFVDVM

± gives the standard deviation of the averaged measurements. Only a part is listed here, and it is no random draw. Most values lie at the level of the controls, where differences are scatter.

Compound in the first assay: Nc1ncnc2c1ncn2[C@@H]1O[C@H](COP(=O)(O)OP(=O)(O)OP(=O)(O)O)[C@@H](O)[C@H]1O [adenosine triphosphate]
The experiment in a line: NP40-soluble protein abundance relative to vehicle (solubility fold change) (ratio); higher = more soluble protein in presence of ATP. Conditions: concentration: 0.1mM. The method, boiled down:
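Each value is a fold change relative to the detergent-processed vehicle, calculated per replicate from vsn-normalised intensities. Jurkat crude lysate received eight concentrations (0.1 to 10 mM) for 10 min at room temperature and 3 min at 37 °C, then was solubilised in 0.8% NP40 with benzonase (60 min, 4 °C). The ultracentrifuged supernatant was TMT-labelled and run by LC-MS/MS in three independent experiments.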
Turning to “I3L3K7 and related entries (UniProt Q12968)”, the NP40-soluble protein abundance turned out to be 1.06 ± 0.018.
“H0YEL0 and related entries (UniProt O14893)”: the NP40-soluble protein abundance came to 0.942 ± 0.1.
For “H7BXY6 and related entries (UniProt Q8NG11)”, the NP40-soluble protein abundance stood at 0.938 ± 0.045.
Turning to “H0Y8C3 and related entries (UniProt Q9NZJ7)”, the NP40-soluble protein abundance was 1.01 ± 0.1.
“J3KPC8 and related entries (UniProt Q9Y2K2)”: the NP40-soluble protein abundance was 1.01 ± 0.096.
“K7EP14 and related entries (UniProt P07992)”: the NP40-soluble protein abundance amounted to 1 ± 0.02.
As to “H3BMM5 and related entries (UniProt Q96AX1+H3BMM5)”, the NP40-soluble protein abundance was 1.02 ± 0.037.
In the case of “J3KP75 and related entries (UniProt O75167)”, the NP40-soluble protein abundance turned out to be 0.938 ± 0.074.
In the case of “H3BSW6 and related entries (UniProt Q2VPK5)”, the NP40-soluble protein abundance amounted to 1.07 ± 0.044.
In the case of “H3BUF6 and related entries (UniProt Q8WWM7)”, the NP40-soluble protein abundance was determined as 0.974 ± 0.03.
On the same count and under the same terms, as for “G5EA30 and related entries (UniProt Q92879)”, the figure is 0.9868 ± 0.0031.
Same read-out and setting: in the case of “J3QRS3 and related entries (UniProt P19105+O14950+J3QRS3)” it was 0.902 ± 0.12; in that of “J3KPC5 and related entries (UniProt P47736)”, 1 ± 0.045; in that of “G5EA36 and related entries (UniProt P30260)”, 0.997 ± 0.048.
Same read-out and setting: in the case of “H0Y8W3 and related entries (UniProt O43566)” it was 1 ± 0.021; in that of “J3QLM1 and related entries (UniProt Q14849)”, 1.06 ± 0.15.
“I3L072 and related entries (UniProt Q9BSJ5)”: the NP40-soluble protein abundance turned out to be 1.01 ± 0.087.
Regarding “H0YEU4 and related entries (UniProt Q03164)”, the NP40-soluble protein abundance turned out to be 1.02 ± 0.023.
On to “H0YJF3 and related entries (UniProt Q13686)”, for which the NP40-soluble protein abundance is 0.996 ± 0.051.
On the same count and under the same terms, as for “J3KQ40 and related entries (UniProt O95759)”, the figure is 1.09 ± 0.18; as for “I3L4C2 and related entries (UniProt Q9UQB8)”, 0.977 ± 0.023; as for “H0Y4T4 and related entries (UniProt Q5SW79)”, 0.994 ± 0.025.
Consider “H0YN65 and related entries (UniProt Q8NCH0)”, for which the NP40-soluble protein abundance was determined as 0.892 ± 0.22.
On to “K7EL68 and related entries (UniProt Q16543)”, for which the NP40-soluble protein abundance came out at 0.995 ± 0.022.
Same read-out and setting: in the case of “I3L3S0 and related entries (UniProt Q9Y5R8)” it was 0.996 ± 0.064.
As for “H7C561 and related entries (UniProt Q15637)”, the NP40-soluble protein abundance was 0.975 ± 0.036.
Regarding “H3BRL0 and related entries (UniProt Q9BXC9)”, the NP40-soluble protein abundance amounted to 1.01 ± 0.018.
Still for that read-out and setting: as for “H3BU53 and related entries (UniProt Q8IWI9)”, the figure is 1.01 ± 0.047; as for “M0QY77 and related entries (UniProt Q9BQD3)”, 0.881 ± 0.13.
The same measure, in the same setting: as for “J3KNP4 and related entries (UniProt Q9NPR2)”, the figure is 0.967 ± 0.018.
Take “K7ERP1 and related entries (UniProt Q9GZN7)”: the NP40-soluble protein abundance came out at 1.06 ± 0.029.
Consider H3BLZ8 (UniProt Q92841), for which the NP40-soluble protein abundance amounted to 1.01 ± 0.064.
In the case of SLC35A4 (UniProt L0R6Q1), the NP40-soluble protein abundance came out at 0.807 ± 0.2.
As to “I3L2N2 and related entries (UniProt O14641)”, the NP40-soluble protein abundance is 0.95 ± 0.013.
Still for that read-out and setting: as for “H3BV23 and related entries (UniProt Q96S82)”, the figure is 0.928 ± 0.097; as for “H0YAH3 and related entries (UniProt Q86SF2)”, 1.06 ± 0.039; as for “H0YCE2 and related entries (UniProt Q9BTT0)”, 0.853 ± 0.081.
The same measure, in the same setting: in the case of “J3KQH6 and related entries (UniProt P78364)” it was 0.93 ± 0.05.

The same assay, now with this note: concentration: 0.5mM.
Consider “I3L3K7 and related entries (UniProt Q12968)”, for which the NP40-soluble protein abundance was found to be 1.08 ± 0.024.
Same read-out and setting: as for “H0YEL0 and related entries (UniProt O14893)”, the figure is 0.949 ± 0.054; as for “H7BXY6 and related entries (UniProt Q8NG11)”, 0.96 ± 0.065.
With “H0Y8C3 and related entries (UniProt Q9NZJ7)”, the NP40-soluble protein abundance was 0.908 ± 0.12.
On the same count and under the same terms, in the case of “J3KPC8 and related entries (UniProt Q9Y2K2)” it was 1.03 ± 0.08; in that of “K7EP14 and related entries (UniProt P07992)”, 0.946 ± 0.038; in that of “H3BMM5 and related entries (UniProt Q96AX1+H3BMM5)”, 1.02 ± 0.039.
Still for that read-out and setting: as for “J3KP75 and related entries (UniProt O75167)”, the figure is 0.882 ± 0.031.
Turning to “H3BSW6 and related entries (UniProt Q2VPK5)”, the NP40-soluble protein abundance stood at 1.02 ± 0.05.
Same read-out and setting: in the case of “H3BUF6 and related entries (UniProt Q8WWM7)” it was 0.991 ± 0.036; in that of “G5EA30 and related entries (UniProt Q92879)”, 0.998 ± 0.057.
As to “J3QRS3 and related entries (UniProt P19105+O14950+J3QRS3)”, the NP40-soluble protein abundance was 0.899 ± 0.15.
In the case of “J3KPC5 and related entries (UniProt P47736)”, the NP40-soluble protein abundance came to 0.967 ± 0.049.
The same measure, in the same setting: in the case of “G5EA36 and related entries (UniProt P30260)” it was 1 ± 0.076.
Still for that read-out and setting: as for “H0Y8W3 and related entries (UniProt O43566)”, the figure is 1 ± 0.013; as for “J3QLM1 and related entries (UniProt Q14849)”, 1.2 ± 0.31; as for “I3L072 and related entries (UniProt Q9BSJ5)”, 0.996 ± 0.081.
Take “H0YEU4 and related entries (UniProt Q03164)”: the NP40-soluble protein abundance is 1.07 ± 0.047.
On the same count and under the same terms, in the case of “H0YJF3 and related entries (UniProt Q13686)” it was 0.881 ± 0.12.
In the case of “J3KQ40 and related entries (UniProt O95759)”, the NP40-soluble protein abundance is 1.03 ± 0.12.
On the same count and under the same terms, as for “I3L4C2 and related entries (UniProt Q9UQB8)”, the figure is 0.931 ± 0.059; as for “H0Y4T4 and related entries (UniProt Q5SW79)”, 1.04 ± 0.054; as for “H0YN65 and related entries (UniProt Q8NCH0)”, 0.841 ± 0.028.
For the target “K7EL68 and related entries (UniProt Q16543)”, the NP40-soluble protein abundance was found to be 0.991 ± 0.042.
As for “I3L3S0 and related entries (UniProt Q9Y5R8)”, the NP40-soluble protein abundance came to 0.921 ± 0.094.
Take “H7C561 and related entries (UniProt Q15637)”: the NP40-soluble protein abundance was determined as 0.99 ± 0.019.
As for “H3BRL0 and related entries (UniProt Q9BXC9)”, the NP40-soluble protein abundance is 0.937 ± 0.025.
Same read-out and setting: as for “H3BU53 and related entries (UniProt Q8IWI9)”, the figure is 1.01 ± 0.057; as for “M0QY77 and related entries (UniProt Q9BQD3)”, 0.807 ± 0.18; as for “J3KNP4 and related entries (UniProt Q9NPR2)”, 0.955 ± 0.046.
The same measure, in the same setting: as for “K7ERP1 and related entries (UniProt Q9GZN7)”, the figure is 0.992 ± 0.045.
The same measure, in the same setting: as for H3BLZ8 (UniProt Q92841), the figure is 0.994 ± 0.094; as for SLC35A4 (UniProt L0R6Q1), 0.786 ± 0.22; as for “I3L2N2 and related entries (UniProt O14641)”, 1 ± 0.053.
Consider “H3BV23 and related entries (UniProt Q96S82)”, for which the NP40-soluble protein abundance worked out at 0.865 ± 0.13.
Same read-out and setting: as for “H0YAH3 and related entries (UniProt Q86SF2)”, the figure is 1.06 ± 0.063; as for “H0YCE2 and related entries (UniProt Q9BTT0)”, 0.853 ± 0.1; as for “J3KQH6 and related entries (UniProt P78364)”, 0.974 ± 0.02.
